Measured values published in PubChem BioAssay AID1347423 (Functional Genomics Laboratory (NCATS/FGL), 2020).
The whole screen tested about 52,000 sequences, of which about 210 (0.4%) were called active.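 The calls were made as follows: active = gene whose silencing raises cell survival under the drug, median off-target-corrected z-score across its silencing RNAs 2 or more; inactive = the rest.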 This is one part of the list.

Test: Resistance to Poly (ADP-Ribose) Polymerase inhibitor: Gene Identification via Genome-wide siRNA Screen
Details: mouse BRCA2 R2336H ES cells, olaparib, CellTiter-Glo viability; active compounds read high
Outline: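 Mouse BRCA2 R2336H ES cells were reverse-transfected with siRNA (20 nM final), treated at 48 h with 500 nM olaparib, and read by CellTiter-Glo after 72 h. Scores: MAD-based z per siRNA, median per gene, seed off-target correction.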

Sequence	z-score
CGCGGUGGAGCUUCGAGAATT against Nrtn	inactive: 0.714
GGAAACUUGCUCAAUUUCCTT against Sec22l2	inactive: -0.000975
GCGGCAGUGAUGAUAAGAATT against Acbd5	inactive: 0.377
GGAAAUAUUGUCAUCAUGGTT against Olfr1302	inactive: 0.757
GGAAGAAGAACUGCACCUATT against Tcea2	inactive: -0.308
GCGAGUCGCUCAUAGUGAATT against AW822216	inactive: 0.476
GGAAAGAAACUACUUCAUCTT against G630009D10Rik	inactive: 0.586
GGAUGGAUAUCACAUAGAATT against Msr2	inactive: 1.86
GGAGACAGUAAUAGCUCAUTT against Trp53bp1	active: 2.14
GGCAUUUAGUGACAACCCATT against Cxcl13	inactive: 0.491
GGAUACCAGACCUCAAGUGTT against P2rx1	inactive: -0.242
GCUAUACUUUUGGGUUAUCTT against Mynn	inactive: -0.673
CCCUUCUCUCGGAAUAAUATT against Gng12	inactive: 0.526
GGAAGAAAAUUCCAAUUUGTT against Rnf24	inactive: 1.37
GGAUAUCAACUCUUGCUUUTT against Gcl	inactive: 0.677
GUCUAUACACCAAAGAUCUTT against Olfr1014	inactive: 0.813
CCACACCAUAACAACAUUCTT against Olfr800	inactive: -0.645
GGCUGGAUUCUUGAACCUGTT against Zfp128	inactive: -0.119
GCGUGUACUAAGUUCUUUGTT against Olfr549	inactive: 0.361
CCACUGAAGUAGUUUCCUATT against Nipsnap3a	inactive: -1.97
CCGAUUCCUUAGUCAUCGUTT against Pdgfra	inactive: 0.688
GGAAGCAUUGAAGAUAAGATT against Topbp1	inactive: 0.226
GGUGGUGAAACUCAAGAUCTT against G630024C07Rik	inactive: 0.381
CCCAGUUAUCCUGAAAAGUTT against 3230401I01Rik	inactive: 0.0119
GGCUUUCUCCAAGCUAUAUTT against Tdgf1	inactive: -2.27
GCAGGCUAUGCUACGCACATT against Arsb	inactive: 1.66

Sequence	z-score
GGAGGGAAAUGUUUUAUGUTT against BC004022	inactive: 0.573
GGCUUUGGAAUGAGAGCUUTT against Dncl2a	inactive: -2.06
GGGAUCUGGAUGAGGUCAATT against Tcf3	inactive: 0.227
CCACAUUUAUGGCUAAAUUTT against BC037674	inactive: 0.759
GGAUAUCGGAUAUGUAAAUTT against Syk	inactive: -0.298
GAAGGAGACAGCACAAGUCTT against H2-M10.2	inactive: 1.12
GGACUGUGACAAAGCACAUTT against Ngfa	inactive: -0.872
GGUGCCUAGUUUGUGGAUATT against D10Jhu81e	inactive: 0.466
GGCAAGGUCAAGGACACCATT against Tcp11	inactive: 0.516
CGAAAACAAUUACGUCUAUTT against BC027246	inactive: 0.222
GGCCAUUGAUACCUACUGCTT against Comt	inactive: 0.131
GCACGUAUGGAAUUCAUGUTT against Daam2	inactive: 0.557
GCGGCUACUCAUAUAAGUCTT against 5033403J15Rik	inactive: 0.175
GGAUCGUUAGUCAUUUCUGTT against Olfr1054	inactive: -0.691
GGGCUUAACACUUUAAAUCTT against D10Ucla1	inactive: -0.267
GCUCAGUAAUCGCUGUCUATT against Olfr91	inactive: -2.51
GGAGCUGCGCAACAUUAUCTT against Ada	inactive: 0.834
GGUGAUCUUUUCUUUCUUUTT against 9430023B20Rik	inactive: 1.26
CCCUCAUCUUUGACGUGGATT against Fkbp1b	inactive: 0.203
GGACUUAUCACUAUUUGCATT against Dlgap3	inactive: 1.29
GCUAAUAACAGUCCUUUCATT against Rorc	inactive: 1.58
GCCUUACUGACUCGUGUCCTT against 6330503K22Rik	inactive: 1.09
GGCUCCAACAGCGACAUGUTT against Glul	inactive: -0.648
GGAGCAAGAAGAACAUUACTT against Galnact2	inactive: -0.378
GGUAAAAAGCGCAGACUUATT against Bms1l	inactive: -2.9
GGCAUUCAUGUUCUUGACUTT against Ptp4a1	inactive: 0.634

Quoted at random: 2 entries already listed, in no set order.
Sequence	z-score
GGUGAUCUUUUCUUUCUUUTT against 9430023B20Rik	inactive: 1.26
GGAUAUCGGAUAUGUAAAUTT against Syk	inactive: -0.298
